Measurements reported in PubChem BioAssay AID652105 (National Center for Advancing Translational Sciences (NCATS), 2013).
Out of some 330,000 compounds screened, about 4,100 (1.2%) were called active. Only results without a clear call are listed here; the source files them as inconclusive. Rule for the calls: active = max response of -50% or lower; inconclusive = between -30% and -50%; inactive = -30% or higher.

Chains of the proteins cited; added tags and fusions are not shown.
UniProt P48426, whole entry: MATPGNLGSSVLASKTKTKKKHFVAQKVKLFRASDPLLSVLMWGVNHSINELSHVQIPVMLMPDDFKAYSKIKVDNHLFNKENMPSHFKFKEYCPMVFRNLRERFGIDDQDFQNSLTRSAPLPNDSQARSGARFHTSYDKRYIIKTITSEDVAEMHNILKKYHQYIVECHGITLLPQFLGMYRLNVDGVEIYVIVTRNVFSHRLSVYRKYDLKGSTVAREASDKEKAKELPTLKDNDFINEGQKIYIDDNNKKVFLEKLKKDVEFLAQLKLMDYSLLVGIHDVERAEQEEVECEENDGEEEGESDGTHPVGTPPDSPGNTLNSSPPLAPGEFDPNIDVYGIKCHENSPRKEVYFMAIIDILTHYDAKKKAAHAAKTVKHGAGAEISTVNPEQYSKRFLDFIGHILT

Biological target: Phosphatidylinositol 5-phosphate 4-kinase type-2 alpha (Homo sapiens) (UniProt P48426)
Assay: qHTS for Inhibitors of phosphatidylinositol 5-phosphate 4-kinase (PI5P4K); note: value at the top dose of about 77 µM
Conditions: PI5P4Kalpha enzyme, ADP-Glo luminescence, 60 min; stronger effect = lower value
Source text: In addition to finding PI5P, we discovered the type II phosphatidylinositol 5-phosphate 4-kinase (PI5P4K) family (alpha, beta, gamma isoforms) that catalyze the conversion of PI5P to PI(4,5)P2. Alternatively, PI(4,5)P2 can also be synthesized through phosphatidylinositol-4-phosphate (PI4P) by the type I phosphatidylinositol 4-phosphate 5-kinases (PI4P5K). These PI5P4K enzymes therefore represent one way by which cells can regulate endogenous PI5P levels and play important roles in insulin signaling and in stress responses.
This proposal aims to identify and optimize specific modulators of human PI5P4K, phosphatidylinositol-5-phosphate 4-kinase (Type II PIPK), a family of kinases that regulate AKT signaling and tumor cell growth. In this project we aim to identify inhibitors of human PI5P4K using a quantitative high-throughput screening approach against the MLSMR containing ~400,000 small molecules.
NIH Chemical Genomics Center [NCGC] […]
2 microL of PI5P4Kalpha/substrate buffer (columns 1-2, 5-48) are dispensed into Greiner white solid bottom 1536-well assay plates; column 3 receives only PI5P4Kalpha buffer as 0x substrate controls; column 4 receives only substrate buffer as 0x PI5P4Kalpha controls. […] They are then transferred to a ViewLux high-throughput CCD imager (PerkinElmer) wherein single end-point measurements of luminescence are acquired using a clear filter.
% is set by controls: 0 for no effect and ±100 for the full control effect.

Row | Compound | max response
1 | O=[N+]([O-])c1cc([N+](=O)[O-])c(OC2CCCCC2O)c([N+](=O)[O-])c1 (stereo unspecified) | inconclusive: -32.5%
